Results published in patent US11466326B2, “Methods and kit for diagnosing and treating colorectal cancer based on AvrA and Wnt1” (The Board of Trustees of the University of Illinois, priority 2018, dated 2022).
At least one compound was matched to its structure with a doubt left.

Test system: Beclin-1 and P62 protein expression
Test: Beclin-1 and P62 western blot in Salmonella-infected HCT116 cells pretreated with JNK inhibitor
Type: cell-based, human
Settings: SP600125 pretreatment 1 hour, 50 μM during gentamicin incubation, Salmonella Enteritidis strains

Oc1c2ccccc2c2c3c(cccc13)N=N2 [SP600125]
level of Beclin-1 and P62 protein expression, cells infected with AvrA versus without AvrA: not different
